Paper PMC10681723

By UniProt entry, the sequences of proteins in these tests, tags left out.
UniProt P32558: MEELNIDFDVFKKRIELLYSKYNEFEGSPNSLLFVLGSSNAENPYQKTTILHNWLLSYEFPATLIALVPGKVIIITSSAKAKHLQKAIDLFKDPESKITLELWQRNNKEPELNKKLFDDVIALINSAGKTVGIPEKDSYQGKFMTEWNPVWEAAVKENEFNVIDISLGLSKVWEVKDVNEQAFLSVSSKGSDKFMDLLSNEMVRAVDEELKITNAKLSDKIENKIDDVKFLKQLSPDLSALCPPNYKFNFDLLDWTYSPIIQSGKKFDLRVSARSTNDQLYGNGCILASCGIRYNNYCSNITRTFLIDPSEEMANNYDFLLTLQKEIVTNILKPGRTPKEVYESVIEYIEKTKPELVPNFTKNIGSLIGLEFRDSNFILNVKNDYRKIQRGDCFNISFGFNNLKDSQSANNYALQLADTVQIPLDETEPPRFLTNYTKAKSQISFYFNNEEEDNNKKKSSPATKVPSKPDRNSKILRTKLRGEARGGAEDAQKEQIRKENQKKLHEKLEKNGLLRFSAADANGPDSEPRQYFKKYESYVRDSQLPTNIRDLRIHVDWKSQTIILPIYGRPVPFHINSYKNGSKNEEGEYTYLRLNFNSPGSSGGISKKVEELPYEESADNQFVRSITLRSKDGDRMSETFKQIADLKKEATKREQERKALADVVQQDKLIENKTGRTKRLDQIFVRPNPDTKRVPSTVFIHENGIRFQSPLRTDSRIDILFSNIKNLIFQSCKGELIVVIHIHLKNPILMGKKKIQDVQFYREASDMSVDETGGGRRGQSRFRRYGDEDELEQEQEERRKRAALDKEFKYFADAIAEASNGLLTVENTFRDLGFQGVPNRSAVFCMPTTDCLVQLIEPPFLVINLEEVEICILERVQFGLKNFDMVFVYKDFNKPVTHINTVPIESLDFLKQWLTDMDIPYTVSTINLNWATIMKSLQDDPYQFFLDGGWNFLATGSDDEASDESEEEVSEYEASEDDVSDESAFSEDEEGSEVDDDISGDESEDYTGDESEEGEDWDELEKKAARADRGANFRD

B1: Snt1 (protein, UniProt P25357 1-1226)
chain: MGYPPPTRRLGDKKRYHYSNNPNRRHPSAVYSKNSFPKSSNNGFVSSPTADNSTNPSVTPSTASVPLPTAAPGSTFGIEAPRPSRYDPSSVSRPSSSSYSSTRKIGSRYNPDVERSSSTTSSTPESMNTSTITHTNTDIGNSRYSRKTMSRYNPQSTSSTNVTHFPSALSNAPPFYVANGSSRRPRSMDDYSPDVTNKLETNNVSSVNNNSPHSYYSRSNKWRSIGTPSRPPFDNHVGNMTTTSNTNSIHQREPFWKANSTTILKSTHSQSSPSLHTKKFHDANKLDKPEASVKVETPSKDETKAISYHDNNFPPRKSVSKPNAPLEPDNIKVGEEDALGKKEVHKSGREIAKEHPTPVKMKEHDELEARAKKVSKINIDGKQDEIWTTAKTVASAVEVSKESQKELTRSVERKESPEIRDYERAYDPKALKTDVTKLTVDNDNKSYEEPLEKVEGCIFPLPKAETRLWELKNQKRNKIISEQKYLLKKAIRNFSEYPFYAQNKLIHQQATGLILTKIISKIKKEEHLKKINLKHDYFDLQKKYEKECEILTKLSENLRKEEIENKRKEHELMEQKRREEGIETEKEKSLRHPSSSSSSRRRNRADFVDDAEMENVLLQIDPNYKHYQAAATIPPLILDPIRKHSYKFCDVNNLVTDKKLWASRILKDASDNFTDHEHSLFLEGYLIHPKKFGKISHYMGGLRSPEECVLHYYRTKKTVNYKQLLIDKNKKRKMSAAAKRRKRKERSNDEEVEVDESKEESTNTIEKEEKSENNAEENVQPVLVQGSEVKGDPLGTPEKVENMIEQRGEEFAGELENAERVNDLKRAHDEVGEESNKSSVIETNNGVQIMDPKGAVQNGYYPEETKELDFSLENALQRKKHKSAPEHKTSYWSVRESQLFPELLKEFGSQWSLISEKLGTKSTTMVRNYYQRNAARNGWKLLVDETDLKRDGTSSESVQQSQILIQPERPNINAYSNIPPQQRPALGYFVGQPTHGHNTSISSIDGSIRPFGPDFHRDTFSKISAPLTTLPPPRLPSIQFPRSEMAEPTVTDLRNRPLDHIDTLADAASSVTNNQNFSNERNAIDIGRKSTTISNLLNNSDRSMKSSFQSASRHEAQLEDTPSMNNIVVQEIKPNITTPRSSSISALLNPVNGNGQSNPDGRPLLPFQHAISQGTPTFPLPAPRTSPISRAPPKFNFSNDPLAALAAVASAPDAMSSFLSKKENNN
B2: Mcm4 (protein, UniProt P30665 1-933)
chain: MSQQSSSPTKEDNNSSSPVVPNPDSVPPQLSSPALFYSSSSSQGDIYGRNNSQNLSQGEGNIRAAIGSSPLNFPSSSQRQNSDVFQSQGRQGRIRSSASASGRSRYHSDLRSDRALPTSSSSLGRNGQNRVHMRRNDIHTSDLSSPRRIVDFDTRSGVNTLDTSSSSAPPSEASEPLRIIWGTNVSIQECTTNFRNFLMSFKYKFRKILDEREEFINNTTDEELYYIKQLNEMRELGTSNLNLDARNLLAYKQTEDLYHQLLNYPQEVISIMDQTIKDCMVSLIVDNNLDYDLDEIETKFYKVRPYNVGSCKGMRELNPNDIDKLINLKGLVLRSTPVIPDMKVAFFKCNVCDHTMAVEIDRGVIQEPARCERIDCNEPNSMSLIHNRCSFADKQVIKLQETPDFVPDGQTPHSISLCVYDELVDSCRAGDRIEVTGTFRSIPIRANSRQRVLKSLYKTYVDVVHVKKVSDKRLDVDTSTIEQELMQNKVDHNEVEEVRQITDQDLAKIREVAAREDLYSLLARSIAPSIYELEDVKKGILLQLFGGTNKTFTKGGRYRGDINILLCGDPSTSKSQILQYVHKITPRGVYTSGKGSSAVGLTAYITRDVDTKQLVLESGALVLSDGGVCCIDEFDKMSDSTRSVLHEVMEQQTISIAKAGIITTLNARSSILASANPIGSRYNPNLPVTENIDLPPPLLSRFDLVYLVLDKVDEKNDRELAKHLTNLYLEDKPEHISQDDVLPVEFLTMYISYAKEHIHPIITEAAKTELVRAYVGMRKMGDDSRSDEKRITATTRQLESMIRLAEAHAKMKLKNVVELEDVQEAVRLIRSAIKDYATDPKTGKIDMNLVQTGKSVIQRKLQEDLSREIMNVLKDQASDSMSFNELIKQINEHSQDRVESSDIQEALSRLQQEDKVIVLGEGVRRSVRLNNRV
B3: Mcm5 (protein, UniProt P29496 1-775)
chain: MSFDRPEIYSAPVLQGESPNDDDNTEIIKSFKNFILEFRLDSQFIYRDQLRNNILVKNYSLTVNMEHLIGYNEDIYKKLSDEPSDIIPLFETAITQVAKRISILSRAQSANNNDKDPENTSMDTDSLLLNSLPTFQLILNSNANQIPLRDLDSEHVSKIVRLSGIIISTSVLSSRATYLSIMCRNCRHTTSITINNFNSITGNTVSLPRSCLSTIESESSMANESNIGDESTKKNCGPDPYIIIHESSKFIDQQFLKLQEIPELVPVGEMPRNLTMTCDRYLTNKVIPGTRVTIVGIYSIYNSKNGAGSGRSGGGNGGSGVAIRTPYIKILGIQSDVETSSIWNSVTMFTEEEEEEFLQLSRNPKLYEILTNSIAPSIFGNEDIKKAIVCLLMGGSKKILPDGMRLRGDINVLLLGDPGTAKSQLLKFVEKVSPIAVYTSGKGSSAAGLTASVQRDPMTREFYLEGGAMVLADGGVVCIDEFDKMRDEDRVAIHEAMEQQTISIAKAGITTVLNSRTSVLAAANPIYGRYDDLKSPGDNIDFQTTILSRFDMIFIVKDDHNEERDISIANHVINIHTGNANAMQNQQEENGSEISIEKMKRYITYCRLKCAPRLSPQAAEKLSSNFVTIRKQLLINELESTERSSIPITIRQLEAIIRITESLAKLELSPIAQERHVDEAIRLFQASTMDAASQDPIGGLNQASGTSLSEIRRFEQELKRRLPIGWSTSYQTLRREFVDTHRFSQLALDKALYALEKHETIQLRHQGQNIYRSGV

The binders below were run against TAP-tagged Spt16 (Spt16-TAP), wild type (budding yeast (S. cerevisiae)) (UniProt P32558) (assay: affinity purification with mass spectrometry; tandem affinity purification of wild-type Spt16 or Spt16-ΔN from yeast cells, SDS-PAGE, label-free quantitative mass spectrometry, n = 3).

binding, binds:
B1
B2
B3

No constants are given. Whether binding was seen depends on the method and setting. Binding seen in cells or lysates may run through a third protein. A yes stands for co-enrichment or nearness to the bait. Other partners may have been found.
